Measurements: PubChem BioAssay AID2517 (National Center for Advancing Translational Sciences (NCATS), 2010)
Where “and” joins values, the source holds several entries; their conditions need not be identical. Equal values may be shown once. Hit rate of the full screen: of about 350,000 compounds, about 1,200 (0.34%) were called active. This list was built around the results that the source calls inconclusive (neither active nor inactive); the mix of calls is not that of the screen. Calls come from the whole dose curve; as a rule, active = well fitted inhibition curve with a large enough effect; inconclusive = small, poorly fitted or top-dose-only effect; inactive = no such curve, though single readings can be large or run the other way. Potencies of inconclusive entries are doubtful fits and often do not repeat.

Protein sequences, listed by entry. Tags and fused reporters are not part of them.
UniProt P27695, whole entry, looked up: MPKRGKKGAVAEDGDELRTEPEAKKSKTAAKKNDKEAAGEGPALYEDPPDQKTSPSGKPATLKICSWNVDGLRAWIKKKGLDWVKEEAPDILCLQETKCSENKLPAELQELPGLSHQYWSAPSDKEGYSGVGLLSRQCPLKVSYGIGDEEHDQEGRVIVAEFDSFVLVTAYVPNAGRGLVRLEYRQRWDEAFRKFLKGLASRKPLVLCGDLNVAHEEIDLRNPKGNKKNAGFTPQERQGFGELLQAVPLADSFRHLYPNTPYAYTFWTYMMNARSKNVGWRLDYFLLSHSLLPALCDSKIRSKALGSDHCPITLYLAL

Target: DNA repair nuclease/redox regulator APEX1 (Homo sapiens) (UniProt P27695)
Assay: qHTS Assay for Inhibitors of the Human Apurinic/apyrimidinic Endonuclease 1 (APE1); note: nearly all actives have a fitted effect of over 55% in size
Conditions: recombinant APE1, TAMRA/BHQ-2 abasic DNA cleavage fluorescence; series mostly up to 65.8 µM
Method in brief: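 Enzyme (0.75 nM final) and test compound are incubated 15 min at room temperature before adding 50 nM quenched THF abasic-site duplex. Cleavage dequenches TAMRA, followed at 525/598 nm over three reads one minute apart.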
Potency is the fitted concentration of half-maximal effect.

Compound | Potency
Cc1c(Cl)c([N+](=O)[O-])nn1CC(=O)Nc1ccc2c(c1)OCO2 | inconclusive: 3.55 µM [inhibitor, single point]
CSc1nc(C)c2c(n1)N(c1ccc(O)cc1)CC2 | inconclusive: 50.1 µM [inhibitor, partial curve, poor fit]
N#Cc1c(-c2cccnc2)c2c([nH]c1=S)CCCC2 | inactive
CCN(CC)S(=O)(=O)c1ccc(S(=O)(=O)N(CC(=O)Nc2ccccc2)Cc2ccco2)cc1 | inconclusive: 44.7 µM [inhibitor, single point]
N#Cc1ccc(Cl)cc1NC(=O)COC(=O)c1ccc2c(c1)OCCO2 | inconclusive: 4.47 µM [inhibitor, single point]
CCOc1ccc2nc(NC(=O)C3CCCN(S(=O)(=O)c4c(C)noc4C)C3)sc2c1 (configuration not stated) | inconclusive: 3.16 µM [inhibitor, single point]
NC(=S)Nc1nc2ccccc2[nH]c1=O | inconclusive: 35.5 µM [inhibitor, single point]
CC(=O)Nc1ccc2ccccc2c1 | inactive
COc1cc(CN2CC(=O)N(c3ccc(C)c(C)c3)C2=S)cc(OC)c1OC | inactive
CCc1ccc(N=C2NC(=O)/C(=C/c3ccc(OCC(=O)O)c(OC)c3)S2)cc1 | inconclusive: 26.7 µM [inhibitor, single point]
CCCCOC(=O)c1ccc(NC(=O)c2c(OC)cccc2OC)cc1 | inconclusive: 22.4 µM [inhibitor, single point]
COc1ccc(CCNC(=O)C(=O)NCC2CCNCC2)cc1OC | inconclusive: 3.16 µM [inhibitor, single point]
CN(Cc1ccccc1)S(=O)(=O)c1ccc(OCC(=O)N2CCC(C(N)=O)CC2)cc1 | inconclusive: 0.0447 µM [inhibitor, partial curve, poor fit]
O=C(CSc1ccccn1)N1CCN(c2cccc(Cl)c2)CC1 | inactive
C=CCOc1ccc(Br)cc1/C=C1/SC(=Nc2ccc(C(=O)O)cc2)NC1=O | inactive
COc1cc2cc3c4c(cc(OC)c(OC)c4c2cc1OC)CCN3C | inconclusive: 14.1 µM [inhibitor, partial curve]
C[C@]12CC[C@@H]3c4cc(O)c(O)cc4CC[C@H]3[C@@H]1CC[C@@H]2O | inactive
CN(C)/N=C/c1ccc(P(c2ccc(/C=N/N(C)C)o2)c2ccc(/C=N/N(C)C)o2)o1 | inconclusive: 44.7 µM [inhibitor, single point]
COc1ccc(-c2cc(=O)c3ccc(O)cc3o2)cc1 | inactive
O=C(NCCCO)c1ccc2nc(-c3ccco3)c(-c3ccco3)nc2c1 | inconclusive: 14.1 µM [inhibitor, partial curve]
C/C=C/C=C\C(=O)Nc1cccc(C2=NOC3(C2)C[C@@H](C(N)=O)N(C(=O)c2cc([N+](=O)[O-])cc([N+](=O)[O-])c2C)C3)c1 (some centres not stated) | inactive

Copied from the entries so far (twelve entries):
Compound | Potency
CCN(CC)S(=O)(=O)c1ccc(S(=O)(=O)N(CC(=O)Nc2ccccc2)Cc2ccco2)cc1 | inconclusive: 44.7 µM [inhibitor, single point]
N#Cc1ccc(Cl)cc1NC(=O)COC(=O)c1ccc2c(c1)OCCO2 | inconclusive: 4.47 µM [inhibitor, single point]
CCOc1ccc2nc(NC(=O)C3CCCN(S(=O)(=O)c4c(C)noc4C)C3)sc2c1 (configuration not stated) | inconclusive: 3.16 µM [inhibitor, single point]
NC(=S)Nc1nc2ccccc2[nH]c1=O | inconclusive: 35.5 µM [inhibitor, single point]
CC(=O)Nc1ccc2ccccc2c1 | inactive
COc1cc(CN2CC(=O)N(c3ccc(C)c(C)c3)C2=S)cc(OC)c1OC | inactive
CCc1ccc(N=C2NC(=O)/C(=C/c3ccc(OCC(=O)O)c(OC)c3)S2)cc1 | inconclusive: 26.7 µM [inhibitor, single point]
CCCCOC(=O)c1ccc(NC(=O)c2c(OC)cccc2OC)cc1 | inconclusive: 22.4 µM [inhibitor, single point]
COc1ccc(CCNC(=O)C(=O)NCC2CCNCC2)cc1OC | inconclusive: 3.16 µM [inhibitor, single point]
CN(Cc1ccccc1)S(=O)(=O)c1ccc(OCC(=O)N2CCC(C(N)=O)CC2)cc1 | inconclusive: 0.0447 µM [inhibitor, partial curve, poor fit]
O=C(CSc1ccccn1)N1CCN(c2cccc(Cl)c2)CC1 | inactive
C=CCOc1ccc(Br)cc1/C=C1/SC(=Nc2ccc(C(=O)O)cc2)NC1=O | inactive

Later entries

Compound | Potency
CCNc1ncc2nc(-c3cccc(C#N)c3)c(=O)n(CCC#N)c2n1 | inactive
CCn1c(SCC(=O)N/N=C/C=C/c2ccco2)nc2ccccc21 | inconclusive: 39.8 µM [inhibitor, single point]
COc1cc(/C=N/NC(=S)Nc2cccc(S(=O)(=O)N(C)C)c2)cc(OC)c1O | inconclusive: 44.7 µM [inhibitor, single point]
COC(=O)c1ccc(N)c(N=CC2=C(O)CC(C)(C)CC2=O)c1 | inconclusive: 7.08 µM [inhibitor, full curve, poor fit]
Cn1ncc(Br)c1C(=O)Nc1ccc(Cl)cn1 | inconclusive: 15.8 µM [inhibitor, single point]
COC(=O)C1=C(C)N(CCCC(=O)O)C(=O)NC1c1cc2c(cc1[N+](=O)[O-])OCO2 (configuration not stated) | inconclusive: 31.6 µM [inhibitor, partial curve]
CCn1c(C)nnc1SCC(=O)Nc1cccc(Cl)c1 | inactive
CC1=NN(c2ccc(Cl)c(C(=O)O)c2)C(=O)C1 | inconclusive: 25.1 µM [inhibitor, partial curve]
FC(F)(F)c1nnc2ccc(-n3ccnc3)nn12 | inconclusive: 0.0355 µM [inhibitor, full curve, poor fit]
CC(C)(C)OC(=O)N1CCC(c2c(C(=O)O)cnn2-c2ccc(Cl)cc2)CC1 | inconclusive: 4.47 µM [inhibitor, single point]
COCCCn1c(Cc2csc(Nc3cccc(Cl)c3)n2)nnc1SCC(=O)OC | inconclusive: 0.631 µM [inhibitor, full curve, poor fit]
Cc1ccc2nc(NC(=O)/C=C/c3ccc4c(c3)OCO4)sc2c1 | inconclusive: 0.02 µM [inhibitor, full curve]
O=S(=O)(c1ccc2nc(-c3ccco3)c(-c3ccco3)nc2c1)N1CCOCC1 | inconclusive: 35.5 µM [inhibitor, single point]
CC(=O)N[C@H]1CSSC[C@@H](C(=O)N2CCC[C@H]2C(=O)N2CCC[C@H]2C(=O)N[C@@H](CCCCN)C(=O)N[C@@H](CC(=O)O)C(N)=O)NC(=O)CNC(=O)[C@H](Cc2c[nH]c3ccccc23)NC(=O)[C@H](CCCNC(=N)N)NC(=O)[C@@H](Cc2ccc3ccccc3c2)NC(=O)[C@H](Cc2cnc[nH]2)NC(=O)[C@H](CCC(=O)O)NC1=O | inactive
COc1ccc(-c2nnc(NC(=O)c3ccc(F)cc3)o2)cc1 | inconclusive: 28.2 µM [inhibitor, single point]
CCCCC(=O)Nc1nn(CC(C)C)c2nc3ccccc3cc12 | inconclusive: 100 µM [inhibitor, partial curve, poor fit]
NCCC[C@@H](CC(=O)N[C@@H]1CCNC[C@H]1C(=O)N[C@H](CC(=O)N[C@@H](CCC(=O)O)CC(=O)O)Cc1ccccc1)NC(=O)C[C@H](CO)NC(=O)[C@@H]1CNCC[C@H]1N | inactive
COc1ccccc1NC(=O)OCC#CCOC(=O)Nc1ccccc1OC | inconclusive: 44.7 µM [inhibitor, single point]
Cc1ccccc1-n1c(C)cc(/C=N/Nc2ccc([N+](=O)[O-])cn2)c1C | inactive
O=C(COC(=O)c1ccc(S(=O)(=O)N2CCCCC2)cc1)NCc1ccco1 | inconclusive: 17.8 µM [inhibitor, partial curve, poor fit]
CCc1c(C)[nH]n(-c2ccc(Oc3ccccc3)c(S(=O)(=O)O)c2)c1=O | inconclusive: 22.4 µM [inhibitor, single point]

Compound | Potency
COc1cc(OC)cc(C(=O)NCC(=O)OCC(=O)NC(C)(C)C)c1 | inconclusive: 7.94 µM [inhibitor, single point]
O=c1oc2cc(O)ccc2c2oc3cc(O)ccc3c12 | inconclusive: 25.1 µM [inhibitor, partial curve, poor fit] and inconclusive: 39.8 µM [inhibitor, single point]
COC(=O)c1ccc(C23CC2(C(NP(=O)(c2ccccc2)c2ccccc2)c2ccccc2)C3)cc1 (configuration not stated) | inconclusive: 8.91 µM [inhibitor, partial curve]
Cc1ccc(OCC(=O)c2cc(C)c(C)cc2C)c([N+](=O)[O-])n1 | inconclusive: 20 µM [inhibitor, single point]
COc1ccc(CNC(=O)c2ccc(NC(=O)CC3SC(N4CCCCC4)=NC3=O)cc2)cc1 (configuration not stated) | inconclusive: 39.8 µM [inhibitor, single point]
CCOC(=O)N1CCC(NC(=O)C(NS(=O)(=O)c2ccc3c(c2)CCN3C(=O)CC)C(C)C)CC1 (configuration not stated) | inconclusive: 1.41 µM [inhibitor, full curve, poor fit]
COc1ccc(C)cc1NC(=O)CSc1nnc(COc2ccccc2)n1Cc1ccco1 | inconclusive: 25.1 µM [inhibitor, single point]
COc1cccc(-c2ccc3ncnc(NCc4cnc(C)cn4)c3c2)c1 | inactive
CC(C)(c1ccccc1)c1ccc(OCC2CO2)cc1 (configuration not stated) | inconclusive: 21.2 µM [inhibitor, single point]
Cc1ccc(NC(=O)CN2C(=O)N/C(=C/c3cccn3-c3ccc(C(=O)O)cc3)C2=O)cc1 | active: 1.12 µM
COc1ccc(NC(=O)COC(=O)c2ccc(OC)c(S(=O)(=O)N3CCCC3)c2)cc1OC | inconclusive: 37.7 µM [inhibitor, single point]
O=C(O)c1ccccc1NC(=S)NC(=O)c1sc2ccccc2c1Cl | inactive
COc1cc(C(=O)Oc2ccccc2/C=N/NC(=O)c2ccc(Cl)cc2)cc(OC)c1OC | inactive
COc1ccc(C2C(C(N)=O)=C(C)Nc3nc(-c4ccccc4)nn32)cc1OC (configuration not stated) | inconclusive: 3.16 µM [inhibitor, single point]
COc1ccc(OC)c(C2OCCC=CC2C)c1 (configuration not stated) | inconclusive: 3.16 µM [inhibitor, partial curve]
COc1ccc(N2CC(C(=O)Nc3ccc(S(=O)(=O)Nc4nc(C)cc(C)n4)cc3)CC2=O)cc1 (configuration not stated) | inconclusive: 7.94 µM [inhibitor, single point]
CC(C)(C)c1ccc(C(=O)Nc2ccc(C=C(C#N)C#N)cc2)cc1 | inactive
NS(=O)(=O)c1ccc(NC(=O)N2c3ccccc3Sc3ccccc32)cc1 | inconclusive: 39.8 µM [inhibitor, single point]
COc1ccc(S(=O)(=O)Cc2ccc(C(=O)NCc3ccccn3)o2)cc1 | inconclusive: 44.7 µM [inhibitor, single point]
O=C(O)c1nccnc1C(=O)Nc1ccc(S(=O)(=O)N2CCOCC2)cc1 | inconclusive: 7.08 µM [inhibitor, single point]

A section taken from the entries so far, as a working copy:
Compound | Potency
Cc1ccc(OCC(=O)c2cc(C)c(C)cc2C)c([N+](=O)[O-])n1 | inconclusive: 20 µM [inhibitor, single point]
COc1ccc(CNC(=O)c2ccc(NC(=O)CC3SC(N4CCCCC4)=NC3=O)cc2)cc1 (configuration not stated) | inconclusive: 39.8 µM [inhibitor, single point]
